{
  "source": "patent US6709681B2",
  "about": "“Acidified nitrite as an antimicrobial agent” (Aberdeen University, priority 1995, dated 2004)",
  "origin": "cited, not measured here",
  "test_system": "recalcitrant viral warts",
  "conditions": "existing treatments; cited from earlier work",
  "note": "Some of these results come from one statement about several compounds together.",
  "data": [
    {"substance": "liquid nitrogen", "values": [
      {"measurement": "clearance of warts", "value": "50-80%"}
    ]}
  ]
}
